Source: the supplement of paper PMC10849652
This is one part of the list.

Protein sequences, listed by entry. Tags and fused reporters are not part of them. Lines headed by an entry give the natural chain unless they say otherwise; changes in a name come on top.
UniProt P29353: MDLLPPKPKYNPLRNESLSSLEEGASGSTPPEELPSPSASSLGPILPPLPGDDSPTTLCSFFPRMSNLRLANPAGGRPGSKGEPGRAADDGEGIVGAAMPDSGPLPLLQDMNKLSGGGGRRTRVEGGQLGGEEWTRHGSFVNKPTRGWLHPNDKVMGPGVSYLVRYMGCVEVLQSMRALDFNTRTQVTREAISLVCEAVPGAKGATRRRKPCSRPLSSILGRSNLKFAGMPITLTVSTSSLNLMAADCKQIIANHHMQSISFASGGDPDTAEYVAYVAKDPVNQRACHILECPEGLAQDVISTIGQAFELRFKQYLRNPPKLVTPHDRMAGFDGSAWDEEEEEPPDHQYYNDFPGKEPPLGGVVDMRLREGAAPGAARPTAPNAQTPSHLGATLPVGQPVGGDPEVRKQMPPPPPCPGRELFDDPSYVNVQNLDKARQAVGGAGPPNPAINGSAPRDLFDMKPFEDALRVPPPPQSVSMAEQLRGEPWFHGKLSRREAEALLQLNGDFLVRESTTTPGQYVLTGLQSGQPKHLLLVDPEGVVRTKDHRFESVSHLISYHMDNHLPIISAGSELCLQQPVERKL
UniProt P60468, whole entry, looked up: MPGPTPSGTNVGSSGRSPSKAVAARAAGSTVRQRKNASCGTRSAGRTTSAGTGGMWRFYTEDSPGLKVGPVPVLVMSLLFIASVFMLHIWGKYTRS
UniProt Q12874: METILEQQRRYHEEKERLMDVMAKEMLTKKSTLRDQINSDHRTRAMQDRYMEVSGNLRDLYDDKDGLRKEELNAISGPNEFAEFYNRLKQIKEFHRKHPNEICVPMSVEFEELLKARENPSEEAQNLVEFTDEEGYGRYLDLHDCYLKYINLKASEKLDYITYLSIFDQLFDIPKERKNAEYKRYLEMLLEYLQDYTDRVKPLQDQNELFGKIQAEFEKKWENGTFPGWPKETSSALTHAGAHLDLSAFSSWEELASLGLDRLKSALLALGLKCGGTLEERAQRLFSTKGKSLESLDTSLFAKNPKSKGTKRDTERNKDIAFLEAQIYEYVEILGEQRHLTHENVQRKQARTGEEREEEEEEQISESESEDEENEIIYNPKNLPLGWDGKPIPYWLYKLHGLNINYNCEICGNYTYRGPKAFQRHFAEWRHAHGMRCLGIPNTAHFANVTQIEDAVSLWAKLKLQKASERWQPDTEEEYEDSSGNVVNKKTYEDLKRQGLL
UniProt P30740: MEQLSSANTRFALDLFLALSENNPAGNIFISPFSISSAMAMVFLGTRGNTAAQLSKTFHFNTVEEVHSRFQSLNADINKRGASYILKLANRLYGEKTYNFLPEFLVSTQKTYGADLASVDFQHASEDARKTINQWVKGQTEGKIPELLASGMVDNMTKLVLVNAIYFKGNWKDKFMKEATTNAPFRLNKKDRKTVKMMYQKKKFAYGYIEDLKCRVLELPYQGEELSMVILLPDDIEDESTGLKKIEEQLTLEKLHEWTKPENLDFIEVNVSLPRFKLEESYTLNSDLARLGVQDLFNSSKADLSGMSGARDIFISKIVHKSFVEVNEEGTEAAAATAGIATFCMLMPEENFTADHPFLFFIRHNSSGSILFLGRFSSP
UniProt Q9H299: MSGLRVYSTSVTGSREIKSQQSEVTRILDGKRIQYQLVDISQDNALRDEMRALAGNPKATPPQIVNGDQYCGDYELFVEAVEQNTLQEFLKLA
UniProt Q9NVA2: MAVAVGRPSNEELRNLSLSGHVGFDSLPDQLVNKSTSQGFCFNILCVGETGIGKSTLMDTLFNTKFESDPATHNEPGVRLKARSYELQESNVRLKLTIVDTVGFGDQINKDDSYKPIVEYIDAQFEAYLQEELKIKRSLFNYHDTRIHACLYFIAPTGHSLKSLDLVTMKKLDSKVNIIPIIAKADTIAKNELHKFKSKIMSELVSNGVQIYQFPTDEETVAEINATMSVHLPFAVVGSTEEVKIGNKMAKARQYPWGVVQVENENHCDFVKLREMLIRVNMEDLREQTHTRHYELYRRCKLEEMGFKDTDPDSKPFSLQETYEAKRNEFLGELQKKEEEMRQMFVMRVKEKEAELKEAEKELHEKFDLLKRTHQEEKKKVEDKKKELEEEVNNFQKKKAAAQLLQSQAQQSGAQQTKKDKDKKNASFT
UniProt Q9Y3B4: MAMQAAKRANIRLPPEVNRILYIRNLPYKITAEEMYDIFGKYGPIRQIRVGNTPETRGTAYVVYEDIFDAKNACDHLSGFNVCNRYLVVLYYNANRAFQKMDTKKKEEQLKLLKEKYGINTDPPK
UniProt Q8N6T7, whole entry, looked up: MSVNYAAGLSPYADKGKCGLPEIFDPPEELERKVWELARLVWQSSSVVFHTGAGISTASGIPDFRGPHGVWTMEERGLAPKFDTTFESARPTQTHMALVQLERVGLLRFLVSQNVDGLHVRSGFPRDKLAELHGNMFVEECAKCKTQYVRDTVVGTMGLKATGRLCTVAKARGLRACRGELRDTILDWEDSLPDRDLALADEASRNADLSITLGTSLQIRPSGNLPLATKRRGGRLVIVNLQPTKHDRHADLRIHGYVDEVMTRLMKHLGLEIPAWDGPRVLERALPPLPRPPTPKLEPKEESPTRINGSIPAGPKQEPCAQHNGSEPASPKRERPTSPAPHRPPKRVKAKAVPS
UniProt P31947: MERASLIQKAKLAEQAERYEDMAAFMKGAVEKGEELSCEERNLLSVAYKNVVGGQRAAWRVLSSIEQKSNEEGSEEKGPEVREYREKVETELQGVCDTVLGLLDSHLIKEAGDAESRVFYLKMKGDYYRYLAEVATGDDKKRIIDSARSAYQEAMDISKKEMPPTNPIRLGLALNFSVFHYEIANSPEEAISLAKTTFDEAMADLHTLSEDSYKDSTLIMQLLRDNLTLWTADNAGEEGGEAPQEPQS
UniProt Q15637: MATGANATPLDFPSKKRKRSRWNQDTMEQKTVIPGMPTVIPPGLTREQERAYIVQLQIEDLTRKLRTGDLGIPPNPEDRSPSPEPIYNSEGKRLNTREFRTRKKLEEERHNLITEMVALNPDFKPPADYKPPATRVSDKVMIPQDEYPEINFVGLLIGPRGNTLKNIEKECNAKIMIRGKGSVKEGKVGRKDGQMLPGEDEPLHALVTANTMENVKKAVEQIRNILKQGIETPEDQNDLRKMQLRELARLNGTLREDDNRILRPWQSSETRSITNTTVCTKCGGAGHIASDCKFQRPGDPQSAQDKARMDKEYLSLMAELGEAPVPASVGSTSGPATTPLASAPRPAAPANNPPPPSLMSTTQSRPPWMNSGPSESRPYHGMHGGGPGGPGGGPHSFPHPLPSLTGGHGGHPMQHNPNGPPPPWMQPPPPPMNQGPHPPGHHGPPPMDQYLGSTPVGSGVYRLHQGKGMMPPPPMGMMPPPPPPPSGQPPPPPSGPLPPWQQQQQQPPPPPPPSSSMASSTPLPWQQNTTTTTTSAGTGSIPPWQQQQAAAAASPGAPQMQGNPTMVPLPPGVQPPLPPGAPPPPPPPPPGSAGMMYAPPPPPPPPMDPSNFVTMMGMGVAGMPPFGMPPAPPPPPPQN
UniProt O60613, whole entry, looked up: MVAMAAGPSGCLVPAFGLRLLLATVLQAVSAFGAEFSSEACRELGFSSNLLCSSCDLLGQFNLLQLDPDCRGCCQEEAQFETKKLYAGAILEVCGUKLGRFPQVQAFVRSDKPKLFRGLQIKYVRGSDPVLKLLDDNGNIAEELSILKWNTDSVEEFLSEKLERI
UniProt Q68CR1: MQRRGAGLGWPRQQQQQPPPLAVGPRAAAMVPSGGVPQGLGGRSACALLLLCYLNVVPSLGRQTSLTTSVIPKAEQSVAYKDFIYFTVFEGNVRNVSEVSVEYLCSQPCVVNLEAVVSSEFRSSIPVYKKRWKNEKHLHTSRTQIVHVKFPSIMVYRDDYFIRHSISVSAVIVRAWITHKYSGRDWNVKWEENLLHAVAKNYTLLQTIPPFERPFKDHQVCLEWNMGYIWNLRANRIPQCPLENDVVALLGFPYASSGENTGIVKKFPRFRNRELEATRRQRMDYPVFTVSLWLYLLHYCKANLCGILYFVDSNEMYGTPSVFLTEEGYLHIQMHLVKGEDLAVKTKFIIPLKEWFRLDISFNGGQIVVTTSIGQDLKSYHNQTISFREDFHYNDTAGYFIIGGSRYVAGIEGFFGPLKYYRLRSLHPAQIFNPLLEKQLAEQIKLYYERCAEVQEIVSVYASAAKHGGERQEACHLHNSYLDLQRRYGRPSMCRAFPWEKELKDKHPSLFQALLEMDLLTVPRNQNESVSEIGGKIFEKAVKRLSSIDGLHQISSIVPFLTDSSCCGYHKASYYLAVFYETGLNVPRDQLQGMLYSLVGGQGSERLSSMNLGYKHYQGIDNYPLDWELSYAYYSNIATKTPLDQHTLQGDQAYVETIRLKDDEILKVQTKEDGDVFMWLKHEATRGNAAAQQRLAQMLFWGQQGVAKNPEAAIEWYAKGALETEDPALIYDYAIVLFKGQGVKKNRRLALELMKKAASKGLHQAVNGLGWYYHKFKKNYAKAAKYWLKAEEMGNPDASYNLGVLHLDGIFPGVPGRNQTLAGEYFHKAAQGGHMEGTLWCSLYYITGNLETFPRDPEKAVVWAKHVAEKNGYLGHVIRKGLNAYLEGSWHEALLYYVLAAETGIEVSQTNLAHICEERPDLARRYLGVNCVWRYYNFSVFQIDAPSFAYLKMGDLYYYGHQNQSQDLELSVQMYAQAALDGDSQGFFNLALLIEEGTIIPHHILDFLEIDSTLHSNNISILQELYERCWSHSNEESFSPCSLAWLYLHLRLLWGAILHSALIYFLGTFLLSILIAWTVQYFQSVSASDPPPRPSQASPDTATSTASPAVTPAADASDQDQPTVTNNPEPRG
UniProt Q9UJC5: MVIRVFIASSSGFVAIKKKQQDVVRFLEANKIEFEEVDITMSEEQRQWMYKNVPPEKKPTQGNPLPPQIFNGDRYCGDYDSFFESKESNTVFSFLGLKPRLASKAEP
UniProt Q9C0C4, whole entry, looked up: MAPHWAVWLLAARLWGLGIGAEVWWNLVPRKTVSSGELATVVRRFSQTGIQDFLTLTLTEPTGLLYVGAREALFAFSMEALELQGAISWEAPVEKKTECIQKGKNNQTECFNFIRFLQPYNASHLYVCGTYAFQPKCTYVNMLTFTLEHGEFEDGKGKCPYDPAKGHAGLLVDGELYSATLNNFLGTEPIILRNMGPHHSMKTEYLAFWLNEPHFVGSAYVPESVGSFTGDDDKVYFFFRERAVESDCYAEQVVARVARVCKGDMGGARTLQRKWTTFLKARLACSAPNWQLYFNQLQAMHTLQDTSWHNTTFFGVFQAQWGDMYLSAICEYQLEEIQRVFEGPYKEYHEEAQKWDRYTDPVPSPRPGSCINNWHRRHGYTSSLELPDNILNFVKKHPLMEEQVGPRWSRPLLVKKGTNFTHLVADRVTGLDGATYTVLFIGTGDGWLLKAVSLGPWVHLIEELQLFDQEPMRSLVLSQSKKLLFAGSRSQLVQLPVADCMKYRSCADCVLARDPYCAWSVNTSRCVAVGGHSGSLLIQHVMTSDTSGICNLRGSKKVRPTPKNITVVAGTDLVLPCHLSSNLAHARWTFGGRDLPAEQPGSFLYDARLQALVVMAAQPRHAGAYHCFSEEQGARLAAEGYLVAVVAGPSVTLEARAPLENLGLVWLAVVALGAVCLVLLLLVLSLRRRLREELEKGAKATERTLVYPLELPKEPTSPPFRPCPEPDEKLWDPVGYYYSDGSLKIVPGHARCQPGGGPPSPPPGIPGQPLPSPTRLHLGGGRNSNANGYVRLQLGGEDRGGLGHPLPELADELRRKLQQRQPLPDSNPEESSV
UniProt Q13435: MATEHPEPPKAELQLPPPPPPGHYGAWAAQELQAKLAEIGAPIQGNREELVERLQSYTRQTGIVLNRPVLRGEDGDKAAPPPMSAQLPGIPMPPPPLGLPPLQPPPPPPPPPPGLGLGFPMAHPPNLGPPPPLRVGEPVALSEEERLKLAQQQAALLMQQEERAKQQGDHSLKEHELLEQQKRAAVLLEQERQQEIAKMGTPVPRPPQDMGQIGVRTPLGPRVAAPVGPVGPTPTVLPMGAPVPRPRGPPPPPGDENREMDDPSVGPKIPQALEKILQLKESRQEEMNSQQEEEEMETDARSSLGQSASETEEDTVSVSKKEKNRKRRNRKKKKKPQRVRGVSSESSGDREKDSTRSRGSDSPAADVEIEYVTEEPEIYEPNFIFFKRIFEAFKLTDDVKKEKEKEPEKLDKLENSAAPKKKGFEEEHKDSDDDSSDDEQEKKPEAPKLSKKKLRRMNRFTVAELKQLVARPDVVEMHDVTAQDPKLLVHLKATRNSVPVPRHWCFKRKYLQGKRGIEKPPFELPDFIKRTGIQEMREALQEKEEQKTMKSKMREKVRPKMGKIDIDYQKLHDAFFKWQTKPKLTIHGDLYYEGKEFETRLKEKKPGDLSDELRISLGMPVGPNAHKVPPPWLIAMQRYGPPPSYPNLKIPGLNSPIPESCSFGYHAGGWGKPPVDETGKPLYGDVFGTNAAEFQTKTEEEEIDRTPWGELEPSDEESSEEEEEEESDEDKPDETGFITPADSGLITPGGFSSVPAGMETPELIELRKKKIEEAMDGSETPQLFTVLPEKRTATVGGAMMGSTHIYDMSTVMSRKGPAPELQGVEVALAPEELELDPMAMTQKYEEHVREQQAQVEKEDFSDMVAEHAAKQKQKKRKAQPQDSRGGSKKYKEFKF

compound: Nc1ccccc1NC(=O)c1ccc(CNC(=O)OCc2cccnc2)cc1 [entinostat]; test: log2 fold change, soluble protein after heating vs DMSO (PISA); higher = thermal stabilisation; K562 cells, 10 uM, 30 min; active = over 0.2 and 3.5 SD of the protein, either way, in both replicates (recomputed)
Method in brief: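 K562 cells (2×10^6 cells/mL) were treated with 10 μM compound for 30 min, and aliquots were heated for 3 min over 48°C-58°C. Pooled aliquots were extracted in PBS with 0.5% NP-40 at 4°C, and the supernatant after 21,000xg for 90 min was measured by TMTpro 16plex LC-MS/MS with channel sums equalised. Reported thermal stability, relative to control samples and from duplicates, is a log2 fold change.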

| Target | log2 fold change |
| --- | --- |
| SHC1 isoform 6 (UniProt P29353) | inactive: -0.017 |
| SEC61B (UniProt P60468) | inactive: 0.022 |
| SF3A3 (UniProt Q12874) | inactive: 0.064 |
| SERPINB1 (UniProt P30740) | inactive: 0.02 |
| SH3BGRL3 (UniProt Q9H299) | inactive: 0 |
| SETDB1 (UniProt Q15047) | inactive: -0.011 |
| SEPTIN11 isoform 2 (UniProt Q9NVA2) | inactive: -0.023 |
| SERPINB6, A0A087X1N8 | inactive: -0.02 |
| SF3B6 (UniProt Q9Y3B4) | inactive: -0.019 |
| SF3B3 (UniProt Q15393) | inactive: -0.012 |
| SIRT6 (UniProt Q8N6T7) | inactive: 0.14 |
| SF3B1 (UniProt O75533) | inactive: 0.063 |
| SFN (UniProt P31947) | inactive: -0.006 |
| SF1 isoform 6 (UniProt Q15637) | inactive: -0.013 |
| SELENOF (UniProt O60613) | inactive: -0.034 |
| SERPINC1 (UniProt P01008) | inactive: -0.008 |
| SEL1L3 (UniProt Q68CR1) | inactive: -0.015 |
| SF1 isoform 5 (UniProt Q15637) | inactive: -0.007 |
| SH3BGRL2 (UniProt Q9UJC5) | inactive: -0.061 |
| SEMA4C (UniProt Q9C0C4) | inactive: -0.044 |
| SEPTIN9 (UniProt Q9UHD8) | inactive: 0.011 |
| SH3BP1 (UniProt Q9Y3L3) | inactive: -0.034 |
| SF3B2 (UniProt Q13435) | inactive: 0.027 |

A few values from the list.
Entry of SELENOF (UniProt O60613) under log2 fold change: inactive: -0.034
Entry of SF1 isoform 6 (UniProt Q15637) under log2 fold change: inactive: -0.013
